Measurements: doi:10.1101/079806
Results are given in words; binding and its absence hold for the method and conditions named. Binding seen in cells or lysates may run through a third protein. Some results given as binding are weak or reduced against the parent protein; the word gives no strength.

Protein sequences, listed by entry. Tags and fused reporters are not part of them. Residues count along the entry.
UniProt P56818, residues 46-501: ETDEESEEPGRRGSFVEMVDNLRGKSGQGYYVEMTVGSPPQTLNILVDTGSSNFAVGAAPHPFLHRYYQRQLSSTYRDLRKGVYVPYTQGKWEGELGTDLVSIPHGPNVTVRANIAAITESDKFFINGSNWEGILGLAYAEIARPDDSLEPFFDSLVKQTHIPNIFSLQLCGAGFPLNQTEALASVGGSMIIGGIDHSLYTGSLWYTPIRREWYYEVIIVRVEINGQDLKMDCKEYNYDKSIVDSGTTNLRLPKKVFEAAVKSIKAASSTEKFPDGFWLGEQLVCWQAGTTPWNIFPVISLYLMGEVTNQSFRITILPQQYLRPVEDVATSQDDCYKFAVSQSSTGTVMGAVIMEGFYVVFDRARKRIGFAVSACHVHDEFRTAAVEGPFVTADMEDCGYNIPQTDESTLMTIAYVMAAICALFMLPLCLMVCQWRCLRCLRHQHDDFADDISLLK
UniProt P12023, residues 18-770: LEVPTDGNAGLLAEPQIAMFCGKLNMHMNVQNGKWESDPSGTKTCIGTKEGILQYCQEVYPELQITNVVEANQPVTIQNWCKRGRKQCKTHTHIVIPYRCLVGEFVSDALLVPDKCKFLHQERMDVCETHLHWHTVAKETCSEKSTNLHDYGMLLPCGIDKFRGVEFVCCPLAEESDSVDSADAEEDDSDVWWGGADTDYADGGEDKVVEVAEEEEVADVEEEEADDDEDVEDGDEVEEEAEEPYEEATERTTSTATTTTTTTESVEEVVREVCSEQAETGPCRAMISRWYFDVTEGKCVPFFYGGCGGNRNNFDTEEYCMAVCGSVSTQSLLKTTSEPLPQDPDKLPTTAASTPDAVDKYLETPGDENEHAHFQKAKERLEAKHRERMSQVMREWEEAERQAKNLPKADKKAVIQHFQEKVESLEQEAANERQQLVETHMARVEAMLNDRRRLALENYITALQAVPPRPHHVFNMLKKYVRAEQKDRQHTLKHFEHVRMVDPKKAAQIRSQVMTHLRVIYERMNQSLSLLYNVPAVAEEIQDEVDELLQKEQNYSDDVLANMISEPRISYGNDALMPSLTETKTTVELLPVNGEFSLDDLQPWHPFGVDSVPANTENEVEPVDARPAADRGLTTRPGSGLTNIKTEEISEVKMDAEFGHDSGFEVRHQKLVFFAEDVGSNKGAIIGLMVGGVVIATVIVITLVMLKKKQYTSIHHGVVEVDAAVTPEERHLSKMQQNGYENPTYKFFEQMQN

Target: BACE1 (the β-secretase in the brain), mouse (mouse (endogenous in forebrain)) (UniProt P56818)
Assay: co-IP

binding: binds
Substance: Amyloid Precursor Protein (APP), mouse (from UniProt P12023 18-770)
